# The list shows a part of the results.
# B1: Ovorubin (Pomacea canaliculata), J7I2T6 (protein)
# chain: MFVATSLLLAIATLVVRASPHNYLIMDIEPPKSVSERDILNLLSPLQVKHSFRVTGSTRLLIVIRLDAQSYEKLDEITVPGKVEVIPAVNMADTMERCGVSWPRVELTDDNVTLFESESTLTDVTKEQLKAMLIGYGEHMSGLLQAHRFEYYQAAGATPHRHFVFVNSVPDEIEVFGREGVDIWGGPGEFVVKPQYVTRI
# Tests used:
# Experiment in all cases: glycan array binding signal (z-score within array); higher = stronger binding
# Details in all cases: glycan notation: IUPAC condensed, linker removed
# [1] = biological target: Neu5Ac(a2-3)Gal(b1-4)GlcNAc(b1-3)[Neu5Ac(a2-3)Gal(b1-4)GlcNAc(b1-6)]GalNAc
# In short: (§1)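 The binding signal is a Z-score computed within each array and averaged over linkers. Arrays of the same protein sequence at different concentrations or buffers were also averaged together. Data originate from 3228 arrays in the Consortium for Functional Glycomics database, kept only where the protein sequence was available.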
# [2] = biological target: Neu5Ac(a2-3)Gal(b1-4)GlcNAc(b1-6)GalNAc
# In short: as §1
# [3] = biological target: Neu5Ac(a2-3)Gal(b1-4)GlcNAc(b1-6)[Gal(b1-3)]GalNAc
# In short: as §1
# [4] = biological target: Neu5Ac(a2-3)Gal(b1-4)GlcNAc(b1-6)[Neu5Ac(a2-3)Gal(b1-3)]GalNAc
# In short: as §1
# [5] = biological target: Neu5Ac(a2-3)Gal(b1-4)GlcNAc6S
# In short: as §1
# [6] = biological target: Neu5Ac(a2-3)Gal(b1-4)[Fuc(a1-3)]GlcNAc
# In short: as §1
# [7] = biological target: Neu5Ac(a2-3)Gal(b1-4)[Fuc(a1-3)]GlcNAc(b1-2)Man
# In short: as §1
# [8] = biological target: Neu5Ac(a2-3)Gal(b1-4)[Fuc(a1-3)]GlcNAc(b1-3)Gal
# In short: as §1
# [9] = biological target: Neu5Ac(a2-3)Gal(b1-4)[Fuc(a1-3)]GlcNAc(b1-3)Gal(b1-4)GlcNAc
# In short: as §1
# [10] = biological target: Neu5Ac(a2-3)Gal(b1-4)[Fuc(a1-3)]GlcNAc(b1-3)Gal(b1-4)[Fuc(a1-3)]GlcNAc(b1-3)Gal(b1-4)[Fuc(a1-3)]GlcNAc
# In short: as §1
# [11] = biological target: Neu5Ac(a2-3)Gal(b1-4)[Fuc(a1-3)]GlcNAc(b1-3)GalNAc
# In short: as §1
# [12] = biological target: Neu5Ac(a2-3)Gal(b1-4)[Fuc(a1-3)]GlcNAc(b1-6)[Gal(b1-3)]GalNAc
# In short: as §1
# [13] = biological target: Neu5Ac(a2-3)Gal(b1-4)[Fuc(a1-3)]GlcNAc(b1-6)[Neu5Ac(a2-3)Gal(b1-3)]GalNAc
# In short: as §1
# [14] = biological target: Neu5Ac(a2-3)Gal(b1-4)[Fuc(a1-3)]GlcNAc6S
# In short: as §1
# [15] = biological target: Neu5Ac(a2-3)Gal6S(b1-4)GlcNAc
# In short: as §1
# [16] = biological target: Neu5Ac(a2-3)Gal6S(b1-4)[Fuc(a1-3)]GlcNAc
# In short: as §1
# [17] = biological target: Neu5Ac(a2-3)GalNAc
# In short: as §1
# [18] = biological target: Neu5Ac(a2-3)GalNAc(b1-4)GlcNAc
# In short: as §1
# [19] = biological target: Neu5Ac(a2-3)[GalNAc(b1-4)]Gal(b1-4)Glc
# In short: as §1
# [20] = biological target: Neu5Ac(a2-3)[GalNAc(b1-4)]Gal(b1-4)GlcNAc
# In short: as §1
# [21] = biological target: Neu5Ac(a2-3)[GalNAc(b1-4)]Gal(b1-4)GlcNAc(b1-3)GalNAc
# In short: as §1
# [22] = biological target: Neu5Ac(a2-3)[Neu5Ac(a2-6)]GalNAc
# In short: as §1
# [23] = biological target: Neu5Ac(a2-6)Gal
# In short: as §1
# [24] = biological target: Neu5Ac(a2-6)Gal(b1-3)GlcNAc(b1-3)[Gal(b1-4)GlcNAc(b1-6)]Gal(b1-4)Glc
# In short: as §1
# [25] = biological target: Neu5Ac(a2-6)Gal(b1-4)Glc
# In short: as §1
# [26] = biological target: Neu5Ac(a2-6)Gal(b1-4)GlcNAc
# In short: as §1
# [27] = biological target: Neu5Ac(a2-6)Gal(b1-4)GlcNAc(b1-2)Man
# In short: as §1
# [28] = biological target: Neu5Ac(a2-6)Gal(b1-4)GlcNAc(b1-2)Man(a1-3)Man(b1-4)GlcNAc(b1-4)GlcNAc
# In short: as §1
# [29] = biological target: Neu5Ac(a2-6)Gal(b1-4)GlcNAc(b1-2)Man(a1-3)[Gal(b1-4)GlcNAc(b1-2)Man(a1-6)]Man(b1-4)GlcNAc(b1-4)GlcNAc
# In short: as §1
# [30] = biological target: Neu5Ac(a2-6)Gal(b1-4)GlcNAc(b1-2)Man(a1-3)[GlcNAc(b1-2)Man(a1-6)]Man(b1-4)GlcNAc(b1-4)GlcNAc
# In short: as §1
# [31] = biological target: Neu5Ac(a2-6)Gal(b1-4)GlcNAc(b1-2)Man(a1-3)[GlcNAc(b1-4)][Neu5Ac(a2-6)Gal(b1-4)GlcNAc(b1-2)Man(a1-6)]Man(b1-4)GlcNAc(b1-4)GlcNAc
# In short: as §1
binder,measurement,setting,value
B1,glycan array binding signal (z-score),[1],-0.6
same,glycan array binding signal (z-score),[2],0.228
same,glycan array binding signal (z-score),[3],-0.463
same,glycan array binding signal (z-score),[4],-0.744
same,glycan array binding signal (z-score),[5],0.708
same,glycan array binding signal (z-score),[6],-0.593
same,glycan array binding signal (z-score),[7],-0.544
same,glycan array binding signal (z-score),[8],-1.06
same,glycan array binding signal (z-score),[9],0.448
same,glycan array binding signal (z-score),[10],0.646
same,glycan array binding signal (z-score),[11],0.47
same,glycan array binding signal (z-score),[12],-0.527
same,glycan array binding signal (z-score),[13],-0.055
same,glycan array binding signal (z-score),[14],-0.291
same,glycan array binding signal (z-score),[15],0.599
same,glycan array binding signal (z-score),[16],0.86
same,glycan array binding signal (z-score),[17],0.287
same,glycan array binding signal (z-score),[18],-0.374
same,glycan array binding signal (z-score),[19],-0.336
same,glycan array binding signal (z-score),[20],-0.092
same,glycan array binding signal (z-score),[21],-0.397
same,glycan array binding signal (z-score),[22],0.934
same,glycan array binding signal (z-score),[23],0.073
same,glycan array binding signal (z-score),[24],-0.285
same,glycan array binding signal (z-score),[25],0.014
same,glycan array binding signal (z-score),[26],-0.191
same,glycan array binding signal (z-score),[27],0.654
same,glycan array binding signal (z-score),[28],0.036
same,glycan array binding signal (z-score),[29],0.133
same,glycan array binding signal (z-score),[30],-1.23
same,glycan array binding signal (z-score),[31],0.487

# Nothing new here: an excerpt of the list.
binder,measurement,setting,value
B1,glycan array binding signal (z-score),[10],0.646
same,glycan array binding signal (z-score),[11],0.47
